Results from paper PMC4471903.
No constants are given. Whether binding was seen depends on the method and setting. Binding seen in cells or lysates may run through a third protein. Some binding calls cover weakened binding; strength is not graded here.

Protein sequences, listed by entry. Tags and fused reporters are not part of them. Lines headed by an entry give the natural chain unless they say otherwise; changes in a name come on top. Residues count along the entry.
UniProt P31415: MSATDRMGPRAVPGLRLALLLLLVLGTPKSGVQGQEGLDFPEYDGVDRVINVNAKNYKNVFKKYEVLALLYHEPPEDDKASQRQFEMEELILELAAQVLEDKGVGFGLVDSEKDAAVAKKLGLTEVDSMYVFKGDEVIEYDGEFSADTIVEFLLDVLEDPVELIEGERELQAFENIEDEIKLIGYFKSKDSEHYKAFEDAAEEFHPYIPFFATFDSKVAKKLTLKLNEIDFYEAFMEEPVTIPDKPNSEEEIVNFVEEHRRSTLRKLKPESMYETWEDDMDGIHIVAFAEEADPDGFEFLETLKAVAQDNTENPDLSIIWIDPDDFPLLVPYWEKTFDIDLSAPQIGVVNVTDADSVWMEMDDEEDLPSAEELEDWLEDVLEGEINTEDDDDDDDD
UniProt Q13586, residues 23-685: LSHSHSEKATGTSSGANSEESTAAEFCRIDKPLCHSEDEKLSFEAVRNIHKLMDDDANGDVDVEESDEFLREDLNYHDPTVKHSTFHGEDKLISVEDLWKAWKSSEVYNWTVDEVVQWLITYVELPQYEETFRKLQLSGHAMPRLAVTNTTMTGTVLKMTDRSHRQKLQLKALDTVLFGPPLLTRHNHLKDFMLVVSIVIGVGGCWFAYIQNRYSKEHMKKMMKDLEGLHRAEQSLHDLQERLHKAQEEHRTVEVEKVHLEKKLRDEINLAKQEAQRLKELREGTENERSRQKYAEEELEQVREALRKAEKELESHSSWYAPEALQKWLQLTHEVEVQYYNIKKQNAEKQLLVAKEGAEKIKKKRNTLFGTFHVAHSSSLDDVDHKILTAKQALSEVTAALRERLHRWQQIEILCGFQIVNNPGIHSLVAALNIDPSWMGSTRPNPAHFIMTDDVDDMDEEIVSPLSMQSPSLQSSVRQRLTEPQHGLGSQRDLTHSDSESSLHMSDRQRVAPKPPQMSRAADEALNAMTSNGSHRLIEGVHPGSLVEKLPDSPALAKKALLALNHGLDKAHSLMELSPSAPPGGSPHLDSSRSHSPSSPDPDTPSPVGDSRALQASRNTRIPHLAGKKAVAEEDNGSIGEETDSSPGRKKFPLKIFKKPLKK

Legend:
[1] = biological target: Calsequestrin1 (CSQ1), endogenous (human (endogenous in HEK293)) (UniProt P31415); test: co-IP; endogenous proteins in whole cell lysates of untransfected HEK293 cells; IP with anti-STIM1 mAb (blot Orai1) or anti-CSQ1 mAb (blot STIM1) and protein-G agarose, 4 °C overnight; cells in Ca2+-free HBSS with or without 1 μM TG for 5 min, with or without 20 μM TFP or 50 μM W7 beforehand; normal mouse IgG as negative control
[2] = biological target: HA-tagged CSQ1 C9 (deletion of wild-type amino acids 388-396) (human) (UniProt P31415); test: co-IP; HEK293 cells expressing HA-CSQ1, C9 or C35, in Ca2+-free HBSS, 1 μM TG for 5 min (also 20 μM TFP for 10 min before TG); lysates precipitated with anti-HA antibody, blot for endogenous STIM1
[3] = biological target: HA-tagged CSQ1 C35 (deletion of wild-type amino acids 362-396) (human) (UniProt P31415); test: as above
[4] = biological target: HA-tagged human wild-type CSQ1 (human) (UniProt P31415); test: as above
[5] = biological target: stromal interaction molecule 1 (STIM1) (human (endogenous in HEK293)) (UniProt Q13586); test: co-IP; reverse: HEK293 cells expressing HA-CSQ1, C9 or C35, 1 μM TG for 5 min; lysates precipitated with anti-STIM1 antibody, blot for the HA tag

Substance	binding [1]	binding [2]	binding [3]	binding [4]	binding [5]
stromal interaction molecule 1 (STIM1) (from UniProt Q13586 23-685)	binds	binds	binds weakly	binds	
HA-tagged CSQ1 C35 (deletion of wild-type amino acids 362-396) (from UniProt P31415 35-361) (domain or fragment)					binds weakly
HA-tagged human wild-type CSQ1 (from UniProt P31415 35-396)					binds
HA-tagged CSQ1 C9 (deletion of wild-type amino acids 388-396) (from UniProt P31415 35-387) (domain or fragment)					binds
